Here are results for one substance from article PMC4675518.

Protein sequences, listed by entry. Tags and fused reporters are not part of them. Residues count along the entry.
UniProt Q04206: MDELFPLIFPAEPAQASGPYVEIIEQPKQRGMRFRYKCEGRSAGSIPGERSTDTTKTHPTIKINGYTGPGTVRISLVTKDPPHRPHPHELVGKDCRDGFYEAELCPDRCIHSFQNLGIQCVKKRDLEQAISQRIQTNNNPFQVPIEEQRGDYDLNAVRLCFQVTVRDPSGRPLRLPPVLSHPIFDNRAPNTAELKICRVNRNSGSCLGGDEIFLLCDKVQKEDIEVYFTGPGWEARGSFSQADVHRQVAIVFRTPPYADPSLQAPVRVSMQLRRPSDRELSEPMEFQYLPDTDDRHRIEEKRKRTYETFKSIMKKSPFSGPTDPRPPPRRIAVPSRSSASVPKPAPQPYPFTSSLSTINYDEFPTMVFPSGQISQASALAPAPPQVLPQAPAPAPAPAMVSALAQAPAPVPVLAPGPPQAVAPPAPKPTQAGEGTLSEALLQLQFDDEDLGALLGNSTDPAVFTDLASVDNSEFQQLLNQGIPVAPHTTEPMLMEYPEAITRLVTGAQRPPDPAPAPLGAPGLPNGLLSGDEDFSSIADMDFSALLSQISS
UniProt Q15848, residues 19-244: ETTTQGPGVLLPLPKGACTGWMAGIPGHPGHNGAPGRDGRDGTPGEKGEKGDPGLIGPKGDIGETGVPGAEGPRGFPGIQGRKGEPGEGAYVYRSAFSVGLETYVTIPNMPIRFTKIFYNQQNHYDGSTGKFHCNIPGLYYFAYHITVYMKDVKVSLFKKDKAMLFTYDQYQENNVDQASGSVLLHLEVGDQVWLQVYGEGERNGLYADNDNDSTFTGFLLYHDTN

These are yes or no findings as the source states them, for the method shown. Binding seen in cells or lysates may run through a third protein. Some binding calls cover weakened binding; strength is not graded here.

Assay [1] has as its target p65 (NF-κB subunit) (human (endogenous in A549)) (UniProt Q04206). The assay can be described thus: co-IP; A549 nuclear proteins (800 μg), precleared, incubated with 2 μg anti-adiponectin, anti-p65 or control rabbit IgG for 4 h, protein A/G agarose overnight at 4°C; immunoblot with anti-adiponectin and anti-p65; cells treated with curcumin, adiponectin siRNA or adiponectin vector. Background: Immunoblotting shows a protein as a band on a membrane.

In assay [2] the target is adiponectin (human (endogenous in A549)) (UniProt Q15848). The assay can be described thus: co-IP; A549 cells (curcumin, adiponectin silenced or transfected) lysed, adiponectin precipitated with adiponectin antibody, immunoblot shows bands of adiponectin monomer, dimer and multimer.

As to “adiponectin (from UniProt Q15848 19-244)”, the binding result in assay [1] and in assay [2] was “binds” throughout.
